Reference: PubChem BioAssay AID463183 (Sanford-Burnham Center for Chemical Genomics, 2010)
The other results are listed elsewhere or left out. These are further read-outs of the screen, such as a control signal, another cell line or another target. No call is given for them. Compounds called inactive in the main read-out are mostly missing here.

Assay: blockers of oleate-driven lipid droplets in liver cells – imaging, AML12 mouse hepatocytes, single concentration, high-content, confirmation (AID 463183);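 note: cells counted after overnight compound exposure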
Conditions: BODIPY lipid droplet imaging, measured here: cell count, cytotoxicity, at 5.2 µM

SMILES | cell count
CC(C)OCCCNC(=O)c1c(N)n(CC2CCCO2)c2nc3ccccc3nc12 (stereo unspecified) | 1620 cells
CCc1ccc(-n2c(O)c(C(C)=O)c(=O)[nH]c2=O)cc1 (tested in a mixture with another compound) | 1650 cells
CC1CCC/C=C/C2CC(O)CC2C(O)/C=C/C(=O)O1 (stereo unspecified) | 206 cells
Nc1cc(Cl)c2nonc2c1[N+](=O)[O-] | 1400 cells
CC1(C)CN=C(Nc2ccc(F)c(Cl)c2)S1 | 1480 cells
COC(=O)C1CN(C#N)N(c2ccc(Cl)cc2)C12c1ccccc1-c1ccccc12 (stereo unspecified) | 37.5 cells
